Reference: publication PMC10675008
Results are given in words; binding and its absence hold for the method and conditions named. In cells and extracts the contact can be indirect. Tags and fused reporters may be left off the sequences shown.

Molecular target: T1, Myc-tagged version of A. thaliana phosphoribulokinase (PRK-Myc) (A. thaliana) (UniProt P25697)
T1 sequence: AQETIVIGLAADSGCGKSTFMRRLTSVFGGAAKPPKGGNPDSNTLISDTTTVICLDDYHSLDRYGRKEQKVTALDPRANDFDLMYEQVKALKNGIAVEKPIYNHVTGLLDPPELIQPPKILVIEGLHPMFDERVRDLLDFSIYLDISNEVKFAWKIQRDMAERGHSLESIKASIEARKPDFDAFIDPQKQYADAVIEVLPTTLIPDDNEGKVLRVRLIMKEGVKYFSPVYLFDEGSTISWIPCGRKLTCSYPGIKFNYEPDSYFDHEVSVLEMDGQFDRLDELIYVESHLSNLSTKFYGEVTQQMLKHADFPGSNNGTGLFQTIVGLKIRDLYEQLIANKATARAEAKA
Experiment: co-IP; proteins co-expressed in agroinfiltrated N. benthamiana leaves (collected after 5 days); protein extracts immunoprecipitated with anti-Myc, immunoblot with anti-Myc and anti-HA

Substance: SlDXS2 with a hemagglutinin (HA) tag (SlDXS2-HA) (tomato (Solanum lycopersicum)) (enzyme)
- binding: no binding
